Here are results for twelve compounds from the supplement of paper PMC4604168 (melanoma cell lines).

The other results are listed elsewhere or left out. Many values rest on one well or one pass, so single values are uncertain.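 Imaging used 1,536-well plates; nuclei positive for cleaved PARP by antibody were divided by total DNA-stained nuclei to yield the apoptosis fraction. Doses for screening kept most cells viable, and cell lines differ markedly in resting and induced cleaved-PARP levels.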

The assay relates to COLO829. Nature of the assay: cleaved PARP positive nuclei fraction relative to DMSO control; melanoma cells; higher = more apoptosis. The settings on record: library dose: low library concentration; 72 h.
Regarding `CN(c1ncccc1CNc1nc(Nc2ccc3c(c2)CC(=O)N3)ncc1C(F)(F)F)S(C)(=O)=O` + Cn1c(=O)n(-c2ccc(C(C)(C)C#N)cc2)c2c3cc(-c4cnc5ccccc5c4)ccc3ncc21 [NVP-BEZ235] (first compound 0.08 µM, partner dose 0.004 µM), the “cleaved PARP positive nuclei fraction” value worked out at 213%.
The figure for `NC(=O)c1ccc(N(C(N)=O)c2c(F)cccc2F)nc1-c1ccc(F)cc1F` + CC(=O)c1c(C)c2cnc(Nc3ccc(N4CCNCC4)cn3)nc2n(C2CCCC2)c1=O [palbociclib] (first compound 0.4 µM, partner dose 0.04 µM) is 68.3%; for `CN(c1ncccc1CNc1nc(Nc2ccc3c(c2)CC(=O)N3)ncc1C(F)(F)F)S(C)(=O)=O` + CCCS(=O)(=O)Nc1ccc(F)c(C(=O)c2c[nH]c3ncc(Cl)cc23)c1F [PLX4720] (first compound 0.08 µM, partner dose 0.08 µM) it is 87.6%.
The result for `CCCCCCCCc1ccc(CCC(N)(CO)CO)cc1` [fingolimod] + Nc1nc(F)nc2c1ncn2[C@@H]1O[C@H](CO)[C@@H](O)[C@@H]1O [fludarabine] (first compound 2 µM, partner dose 0.2 µM) reads 66.1%; that for `CCCCCCCCc1ccc(CCC(N)(CO)CO)cc1` [fingolimod] + CC(=O)c1c(C)c2cnc(Nc3ccc(N4CCNCC4)cn3)nc2n(C2CCCC2)c1=O [palbociclib] (first compound 2 µM, partner dose 0.04 µM), 37.9%; that for `CC(=O)O[C@@]12CO[C@@H]1C[C@H](O)[C@@]1(C)C(=O)[C@H](O)C3=C(C)[C@@H](OC(=O)[C@H](O)[C@@H](NC(=O)OC(C)(C)C)c4ccccc4)C[C@@](O)([C@@H](OC(=O)c4ccccc4)[C@H]21)C3(C)C` [Docetaxel] + Cc1cc(Nc2cc(N3CCN(C)CC3)nc(/C=C/c3ccccc3)n2)n[nH]1 [ENMD2076] (first compound 0.0001 µM, partner dose 0.04 µM), 110%.
The result for `CC1(C)CCC(c2ccc(Cl)cc2)=C(CN2CCN(c3ccc(C(=O)NS(=O)(=O)c4ccc(N[C@H](CCN5CCOCC5)CSc5ccccc5)c(S(=O)(=O)C(F)(F)F)c4)cc3)CC2)C1` + CCCS(=O)(=O)Nc1ccc(F)c(C(=O)c2c[nH]c3ncc(Cl)cc23)c1F [PLX4720] (first compound 0.4 µM, partner dose 0.08 µM) reads 80.1%.
On to `CC(=O)O[C@@]12CO[C@@H]1C[C@H](O)[C@@]1(C)C(=O)[C@H](O)C3=C(C)[C@@H](OC(=O)[C@H](O)[C@@H](NC(=O)OC(C)(C)C)c4ccccc4)C[C@@](O)([C@@H](OC(=O)c4ccccc4)[C@H]21)C3(C)C` [Docetaxel] + Cn1c(Nc2ccc(C(F)(F)F)cc2)nc2cc(Oc3ccnc(-c4ncc(C(F)(F)F)[nH]4)c3)ccc21 [CHIR265] (first compound 0.0001 µM, partner dose 0.08 µM), for which the “cleaved PARP positive nuclei fraction” value was determined as 175%.
For `Cn1sc(=O)n(Cc2ccccc2)c1=O` + CC(C)C[C@H](NC(=O)[C@H](Cc1ccccc1)NC(=O)c1cnccn1)B(O)O [Bortezomib] (first compound 0.4 µM, partner dose 0.001 µM), the “cleaved PARP positive nuclei fraction” value was found to be 98.2%.
The figure for `COc1ccc(C2=N[C@@H](c3ccc(Cl)cc3)[C@@H](c3ccc(Cl)cc3)N2C(=O)N2CCNC(=O)C2)c(OC(C)C)c1` [Nutlin-3] + C=CCNC1=C2C[C@@H](C)C[C@H](OC)[C@H](O)[C@@H](C)/C=C(\C)[C@H](OC(N)=O)[C@@H](OC)/C=C\C=C(/C)C(=O)NC(=CC1=O)C2=O [Tanespimycin] (first compound 0.1 µM, partner dose 0.002 µM) is 129%; for `C[C@@H](N)c1ccc(C(=O)Nc2ccnc3[nH]ccc23)cc1` + CC(C)C[C@H](NC(=O)[C@H](Cc1ccccc1)NC(=O)c1cnccn1)B(O)O [Bortezomib] (first compound 0.4 µM, partner dose 0.001 µM) it is 80%.
The figure for `C[C@]1(O)C[C@@H](c2nc(-c3ccc4ccc(-c5ccccc5)nc4c3)c3c(N)nccn32)C1` + CS(=O)(=O)CCNCc1ccc(-c2ccc3ncnc(Nc4ccc(OCc5cccc(F)c5)c(Cl)c4)c3c2)o1 [lapatinib] (first compound 0.4 µM, partner dose 0.8 µM) is 152%.
